Hit rate of the full screen: of about 1,700 compounds, about 310 (18%) were called active. Inconclusive results, whose numbers are uncertain, are shown with a selection of clear calls.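 How the source made its calls: active means fluorescence change differs from the solvent-only DMSO control mean at a set confidence level in both duplicate runs; inconclusive means differs from solvent-only control mean in just one of two runs; inactive means the rest.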
Target: Muscarinic acetylcholine receptor M1 (Rattus norvegicus) (UniProt P08482)
Experiment: rat M1 muscarinic receptor agonists, confirmation, CHO-M1 cells, Fluo-4 calcium, duplicate retest (AID 1488);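 further: an EC20 dose of acetylcholine follows compound addition during the same imaging run; raw fluorescence intensity difference in instrument units with no normalization to controls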
Details: Fluo-4 calcium fluorescence, agonist mode, at 10 µM, actives lie on both sides

Chains of the proteins cited; added tags and fusions are not shown. Lines headed by an entry give the natural chain unless they say otherwise; changes in a name come on top.
UniProt P08482: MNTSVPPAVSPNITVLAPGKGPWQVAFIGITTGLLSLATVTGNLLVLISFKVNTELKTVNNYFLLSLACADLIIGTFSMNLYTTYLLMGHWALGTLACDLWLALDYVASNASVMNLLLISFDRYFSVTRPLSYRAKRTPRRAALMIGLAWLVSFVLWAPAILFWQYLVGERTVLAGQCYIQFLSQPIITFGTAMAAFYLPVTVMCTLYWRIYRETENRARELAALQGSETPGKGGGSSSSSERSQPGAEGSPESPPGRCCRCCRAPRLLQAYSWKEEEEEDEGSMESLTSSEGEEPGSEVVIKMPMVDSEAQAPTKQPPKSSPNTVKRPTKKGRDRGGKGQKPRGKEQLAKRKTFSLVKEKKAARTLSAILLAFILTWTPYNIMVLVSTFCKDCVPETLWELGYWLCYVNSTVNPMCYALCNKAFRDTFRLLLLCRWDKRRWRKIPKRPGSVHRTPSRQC

Fluorescence change (max-min), inconclusive:
C=CCn1c(=O)/c(=C/c2ccc(Cl)cc2)s/c1=C(/C#N)c1nnc2n1CCCCC2 -24.5
COc1ccc(NC(=O)N(Cc2cc3cc(OC)ccc3[nH]c2=O)CC2CCCO2)cc1 (centres undefined) -20.5
CCc1nc(SCC(=O)N2CCC(C)CC2)c2c(=O)n(C)c(=O)n(C)c2n1 -13.5
COc1ccc(OC)c(N/C(C)=C/C(=O)c2ccc(C)o2)c1 -12.7
Cc1cc(C)nc(SCC(=O)N2CCC(C(N)=O)CC2)n1 -13.6
CC1Cc2ccccc2N1C(=O)CCNS(=O)(=O)c1cccc2nsnc12 (centres undefined) -23.4
COC(=O)C1=C(C)NC(=O)CC1c1cccc(Cl)c1Cl (centres undefined) -21.3
COc1ccc(C2C(C(=O)N3CCN(c4ccccc4F)CC3)c3ccccc3C(=O)N2C)cc1 (centres undefined) -23.8
O=C1CC(=O)N(Cc2ccco2)C(=O)N1 -14
Cc1ccc(-c2nc(CSCC(=O)N3CCN(c4ccccn4)CC3)c(C)o2)cc1 -34.1
O=C(Nc1cccc(-c2nc3cccnc3s2)c1)c1ccco1 -14.4
CCCN1CCN(CCCNC(=O)c2cc3c(=O)n(C)c4ccccc4c3n2C)CC1 -12.4
COc1ccc(CCNC(=O)c2ccccc2NC(=O)c2ccco2)cc1OC -34.6
Clc1ccc2c(c1)CNc1c(ncnc1N1CCOCC1)O2 -25.9

Fluorescence change (max-min), inactive:
CC1(C)CC(=O)C2=C(C1)OC(N)=C(C#N)C21CCN(Cc2ccccc2)CC1 37.1
CCCc1cc(=O)oc2cc3occ(C)c3cc12 -25.9
Cn1c(=O)[nH]c2cc(Cl)cnc21 33.8
Cc1nc2sccn2c1-c1csc(NCc2ccccc2)n1 -10.3
CCOC(=O)Cc1csc(NC(=O)CSc2nnc(-n3nc(C)cc3C)c3ccccc23)n1 0.183
CC(=O)Nc1nc(C)c(-c2csc(Nc3ccc(O)cc3)n2)s1 -10.1
CCN(CC)S(=O)(=O)c1ccc(S(=O)(=O)Nc2ccc(C(=O)N3CCCC3)cc2)cc1 -9.53
Cc1ccc(S(=O)(=O)c2cc3c(=O)n4ccccc4nc3n(Cc3ccco3)c2=N)cc1 22.3
COc1ccc(OC)c(C(=O)CN2CCN(S(=O)(=O)c3ccc(Br)cc3)CC2)c1 -25

Pulled one by one from the list above:
Fluorescence change (max-min), inactive:
CCN(CC)S(=O)(=O)c1ccc(S(=O)(=O)Nc2ccc(C(=O)N3CCCC3)cc2)cc1 -9.53
Cc1nc2sccn2c1-c1csc(NCc2ccccc2)n1 -10.3

Next part:

Fluorescence change (max-min), active:
Cn1c(=O)c2c(SCC(=O)N3CCCc4ccccc43)nc(C3CC3)nc2n(C)c1=O -27.8

— PubChem BioAssay AID1488 (Vanderbilt High Throughput Screening Facility, 2009)
